Laboratory results as given in PMC11215701.
No constants are given. Whether binding was seen depends on the method and setting. Binding seen in cells or lysates may run through a third protein. Some results given as binding are weak or reduced against the parent protein; the word gives no strength.

Chains of the proteins cited; added tags and fusions are not shown. Residues count along the entry.
UniProt P09382: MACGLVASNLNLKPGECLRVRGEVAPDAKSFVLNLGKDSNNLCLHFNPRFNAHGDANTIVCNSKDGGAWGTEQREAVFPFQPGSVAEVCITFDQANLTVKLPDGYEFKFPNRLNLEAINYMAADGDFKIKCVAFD
UniProt P08575, residues 26-1306: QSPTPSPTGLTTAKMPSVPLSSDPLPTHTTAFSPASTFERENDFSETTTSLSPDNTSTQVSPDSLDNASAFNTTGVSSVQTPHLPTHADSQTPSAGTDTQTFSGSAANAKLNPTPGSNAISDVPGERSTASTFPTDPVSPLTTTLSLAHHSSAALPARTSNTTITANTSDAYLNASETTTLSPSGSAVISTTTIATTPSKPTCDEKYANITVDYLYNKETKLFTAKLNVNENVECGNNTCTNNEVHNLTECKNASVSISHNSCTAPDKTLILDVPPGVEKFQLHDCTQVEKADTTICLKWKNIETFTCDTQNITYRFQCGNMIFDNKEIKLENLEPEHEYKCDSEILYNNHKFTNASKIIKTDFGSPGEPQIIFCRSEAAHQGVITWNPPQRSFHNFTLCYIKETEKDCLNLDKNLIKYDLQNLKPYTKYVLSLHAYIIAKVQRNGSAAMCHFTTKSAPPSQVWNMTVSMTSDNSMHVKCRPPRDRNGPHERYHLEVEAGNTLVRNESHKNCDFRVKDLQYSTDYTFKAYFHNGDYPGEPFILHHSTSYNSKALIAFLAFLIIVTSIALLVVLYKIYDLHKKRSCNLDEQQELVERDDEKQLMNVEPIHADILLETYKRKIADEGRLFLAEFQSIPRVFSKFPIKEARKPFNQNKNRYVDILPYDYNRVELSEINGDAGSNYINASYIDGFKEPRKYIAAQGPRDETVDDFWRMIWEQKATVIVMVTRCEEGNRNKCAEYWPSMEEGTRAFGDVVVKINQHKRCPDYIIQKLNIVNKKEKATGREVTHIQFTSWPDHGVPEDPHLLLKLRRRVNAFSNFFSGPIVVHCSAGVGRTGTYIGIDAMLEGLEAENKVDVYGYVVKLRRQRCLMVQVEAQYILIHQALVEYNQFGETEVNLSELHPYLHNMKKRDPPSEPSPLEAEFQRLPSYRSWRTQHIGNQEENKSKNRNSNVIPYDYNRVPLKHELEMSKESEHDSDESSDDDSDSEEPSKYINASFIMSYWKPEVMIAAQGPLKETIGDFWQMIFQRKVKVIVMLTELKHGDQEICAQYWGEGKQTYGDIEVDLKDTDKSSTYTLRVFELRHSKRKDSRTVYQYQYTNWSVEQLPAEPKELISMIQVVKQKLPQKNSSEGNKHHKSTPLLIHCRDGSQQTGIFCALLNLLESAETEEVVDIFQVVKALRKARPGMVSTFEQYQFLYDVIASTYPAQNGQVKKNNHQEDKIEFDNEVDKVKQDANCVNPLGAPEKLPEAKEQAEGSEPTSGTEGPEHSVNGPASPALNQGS

Target: recombinant Galectin-1 (UniProt P09382)
Assay: co-IP; recombinant Gal-1 2 uM (pre-treated with DMSO 0.02% or LLS30 2 uM, 4 h, 4°C) mixed with 30 ug T cell membrane protein for 4 h at 4°C; precipitated with anti-Gal-1 on Protein A/G Sepharose overnight at 4°C; PBS wash; elution with 150 mM glycine pH 2.5; immunoblot for CD45; only the target purified

binding: binds
Substance: CD45 (from UniProt P08575 26-1306) (receptor)
